Laboratory results: paper PMC5889392, “Cryptic glucocorticoid receptor-binding sites pervade genomic NF-κB response elements”
No constants are given. Whether binding was seen depends on the method and setting. In cells and extracts the contact can be indirect. Some results given as binding are weak or reduced against the parent protein; the word gives no strength.

Chains of the proteins cited; added tags and fusions are not shown. Lines headed by an entry give the natural chain unless they say otherwise; changes in a name come on top.
UniProt P04150: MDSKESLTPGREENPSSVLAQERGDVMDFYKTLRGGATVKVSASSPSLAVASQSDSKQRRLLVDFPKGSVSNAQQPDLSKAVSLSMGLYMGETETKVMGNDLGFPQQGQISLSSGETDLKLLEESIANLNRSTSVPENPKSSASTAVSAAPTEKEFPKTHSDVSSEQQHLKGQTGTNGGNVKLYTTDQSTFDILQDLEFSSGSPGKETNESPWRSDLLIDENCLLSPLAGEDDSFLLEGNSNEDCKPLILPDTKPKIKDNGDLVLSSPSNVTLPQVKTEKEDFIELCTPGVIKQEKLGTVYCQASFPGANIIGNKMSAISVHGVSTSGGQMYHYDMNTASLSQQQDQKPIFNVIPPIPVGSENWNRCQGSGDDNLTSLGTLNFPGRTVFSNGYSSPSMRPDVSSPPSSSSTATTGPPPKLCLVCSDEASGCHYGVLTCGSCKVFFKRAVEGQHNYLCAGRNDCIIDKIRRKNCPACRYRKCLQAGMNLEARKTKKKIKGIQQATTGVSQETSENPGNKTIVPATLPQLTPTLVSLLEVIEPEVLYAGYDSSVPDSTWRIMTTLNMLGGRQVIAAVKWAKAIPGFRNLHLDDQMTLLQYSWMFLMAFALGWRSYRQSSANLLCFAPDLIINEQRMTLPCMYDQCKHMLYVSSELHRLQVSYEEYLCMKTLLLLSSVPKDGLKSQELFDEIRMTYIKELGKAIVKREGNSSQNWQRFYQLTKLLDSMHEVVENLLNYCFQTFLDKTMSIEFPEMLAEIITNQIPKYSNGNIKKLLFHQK
UniProt Q04206: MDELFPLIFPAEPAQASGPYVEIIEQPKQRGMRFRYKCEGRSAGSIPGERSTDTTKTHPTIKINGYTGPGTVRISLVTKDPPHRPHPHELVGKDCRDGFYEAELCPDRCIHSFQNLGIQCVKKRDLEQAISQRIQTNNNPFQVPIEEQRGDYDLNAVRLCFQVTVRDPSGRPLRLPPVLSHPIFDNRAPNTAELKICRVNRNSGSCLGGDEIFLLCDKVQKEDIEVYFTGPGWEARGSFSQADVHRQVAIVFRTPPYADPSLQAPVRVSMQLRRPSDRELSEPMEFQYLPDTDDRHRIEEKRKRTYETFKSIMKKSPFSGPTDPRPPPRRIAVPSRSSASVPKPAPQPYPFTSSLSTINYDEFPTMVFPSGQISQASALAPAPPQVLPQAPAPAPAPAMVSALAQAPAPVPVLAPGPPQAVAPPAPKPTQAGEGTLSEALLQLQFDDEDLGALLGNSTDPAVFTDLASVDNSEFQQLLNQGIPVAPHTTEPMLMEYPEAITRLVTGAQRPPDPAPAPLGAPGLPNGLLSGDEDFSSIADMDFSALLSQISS

Legend:
Experiment in all cases: co-IP; HEK293T cells co-transfected with rtTA, inducible HA-GR (WT or mutant) and p65 plasmids; 1 μg/ml doxycycline 24 h, 10 ng/ml TNF-α 1 h; RIPA lysate; IP with anti-HA (Y-11) on Dynabeads protein G overnight at 4 °C, western blot with anti-p65 (F-6)
[1] = target: HA-tagged glucocorticoid receptor S425G (HA-GR-S425G) (human) (UniProt P04150)
[2] = target: HA-tagged glucocorticoid receptor K442A R447A (HA-GR-K442A R447A) (human) (UniProt P04150)
[3] = target: HA-tagged wild-type glucocorticoid receptor (HA-GR-WT) (human) (UniProt P04150)

Measured: binding

p65/RelA subunit of NF-κB (from UniProt Q04206 1-551)
binds: all assays above
